Data source: PubChem BioAssay AID1508587 (Peter MacCallum Cancer Centre, 2020)
This is a random part of about 1,600 reagents tested. Of all reagents, 623 (39%) were called active. 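Calls are for each duplex; lactate ratios contain extreme outliers.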 Entries without a mark were called inactive. Further read-outs or replicates are left out here.

Screen: 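Knockdowns that add to vemurafenib's cut in melanoma glycolysis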 (follow-up of hits)
Cells: human WM266.4 melanoma cells with a BRAF V600 mutation
Reagents: single siRNA against human genes, 25 nM
Time to read-out: 96 h
Treatment: vemurafenib 300 nM (about IC25), given 48 h after transfection for 48 h
Measured: 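Per-cell lactate from absorbance divided by DAPI nucleus counts, compared with and without vemurafenib, relative to non-targeting siRNA, mean of 2 replicates; nuclear counts also give cell number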
Reading the numbers: lactate per cell, drug vs no drug: higher = less drug-induced drop in lactate per cell
Call rule: 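Enhancer call for any duplex whose drug versus no-drug per-cell lactate ratio is below 0.55 (2 SD beneath non-targeting average); genes confirmed when at least 2 of their 4 duplexes qualify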

lactate per cell, drug vs no drug, by gene and reagent
HNRNPF (heterogeneous nuclear ribonucleoprotein F): SID134260421 1.19; SID134260423 0.82; SID134260424 0.67; SID135614089 0.6
CENPQ (centromere protein Q): SID134287377 0.9; SID134287378 0.37 (active); SID134287379 0.44 (active); SID134287380 0.63
FEZF2 (FEZ family zinc finger 2): SID134273537 0.5 (active); SID134273539 0.63; SID152153947 0.46 (active); SID152155096 0.52 (active)
FZD7 (frizzled class receptor 7): SID134229785 0.94; SID134229786 0.7; SID134229787 0.66; SID134229788 0.44 (active)
CELA2A (chymotrypsin like elastase 2A): SID134242705 0.46 (active); SID134242706 0.38 (active); SID134242707 0.4 (active); SID135612619 0.45 (active)
ZW10 (zw10 kinetochore protein): SID134230477 0.52 (active); SID134230478 0.42 (active); SID134230479 0.52 (active); SID134230480 0.62
PAPSS2 (3'-phosphoadenosine 5'-phosphosulfate synthase 2): SID56477751 0.6; SID56477752 0.58; SID56477753 0.64; SID56477754 0.51 (active)
HDDC2 (HD domain containing 2): SID134248317 0.34 (active); SID134248318 0.54 (active); SID134248319 0.48 (active); SID134248320 0.52 (active)
GPR158 (G protein-coupled receptor 158): SID134295941 0.64; SID134295942 0.57; SID134295943 0.59; SID134295944 0.46 (active)
IFT46 (intraflagellar transport 46): SID134268301 0.68; SID134268302 1.08; SID134268303 0.24 (active); SID134268304 0.48 (active)
PMVK (phosphomevalonate kinase): SID56477827 0.63; SID56477828 0.64; SID56477830 0.77; SID135612159 0.76
CHURC1 (churchill domain containing 1): SID134267749 0.59; SID134267750 0.76; SID134267751 0.29 (active); SID134267752 0.3 (active)
ADD1 (adducin 1): SID134246613 0.56; SID134246614 0.3 (active); SID134246615 0.62; SID134246616 0.65
WASHC2C (WASH complex subunit 2C): SID134302421 0.7; SID134302422 0.64; SID134302423 0.62; SID134302424 0.68
MSH3 (mutS homolog 3): SID134283485 0.81; SID134283486 0.64; SID134283487 1.23; SID134283488 0.44 (active)
NES (nestin): SID134305381 1.23; SID134305382 0.41 (active); SID134305383 0.68; SID134305384 0.58

7 of these entries, set out differently.
MSH3 (mutS homolog 3) [SID134283485] — lactate per cell, drug vs no drug: 0.81
MSH3 (mutS homolog 3) [SID134283486] — lactate per cell, drug vs no drug: 0.64
MSH3 (mutS homolog 3) [SID134283487] — lactate per cell, drug vs no drug: 1.23
MSH3 (mutS homolog 3) [SID134283488] — lactate per cell, drug vs no drug: 0.44 (active)
NES (nestin) [SID134305381] — lactate per cell, drug vs no drug: 1.23
NES (nestin) [SID134305382] — lactate per cell, drug vs no drug: 0.41 (active)
NES (nestin) [SID134305383] — lactate per cell, drug vs no drug: 0.68
